Measured values from PubChem BioAssay AID1347423 (Functional Genomics Laboratory (NCATS/FGL), 2020).
Out of some 52,000 sequences screened, about 210 (0.4%) were called active.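 Rule for the calls: active = gene whose silencing raises cell survival under the drug, median off-target-corrected z-score across its silencing RNAs 2 or more; inactive = the rest.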 This is one part of the list.

assay: Resistance to Poly (ADP-Ribose) Polymerase inhibitor: Gene Identification via Genome-wide siRNA Screen; settings: mouse BRCA2 R2336H ES cells, olaparib, CellTiter-Glo viability; hits give high values
Method in brief: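 Mouse BRCA2 R2336H ES cells were reverse-transfected with siRNA (20 nM final), treated at 48 h with 500 nM olaparib, and read by CellTiter-Glo after 72 h. Scores: MAD-based z per siRNA, median per gene, seed off-target correction.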

Row | Sequence | z-score
1 | GGUCGAAAGAAGGCCUUUATT against Olfr131 | inactive: -1.27
2 | GGGUUGAAUUCAGGUUCAATT against Rsad1 | inactive: 2.27
3 | GGAUGAUGAAGUCAAAUUUTT against Pres | inactive: 0.837
4 | GGUCAGUGAAGUUUAACAATT against 2310046O06Rik | inactive: -0.841
5 | GGGCUAUGUAUUGUAAAUGTT against Nxf1 | inactive: -3.05
6 | GGAGUUUACAGAAAUUAUCTT against Pecam1 | inactive: 0.314
7 | GGAGAUUAACCGCACUAUCTT against Snx19 | inactive: 0.462
8 | GCCAGAUCUGUUAACCGCCTT against Gzmk | inactive: 0.0434
9 | GGAGCUUAGCCUCUGUAUGTT against D10Jhu81e | inactive: 0.665
10 | GCCGAUACUUGAGCCAGUUTT against Srd5a1 | inactive: -1.17
11 | GCAGUUUAAGAGAAUAAGGTT against Apaf1 | inactive: 2.1
12 | GCCUACCACGAAGCACUUUTT against Cd38 | inactive: -0.469
13 | CCAUAUGAAGGCGCAUGGATT against C330029B10Rik | inactive: -0.126
14 | CGUGUACUCCUGGUUUCCCTT against 1700129L13Rik | inactive: 0.655
15 | GGCAAACCUGAAUUUACGGTT against Pcdha9 | inactive: 0.794
16 | GGCUCCAGUAAUUGAUAAATT against Sycp3 | inactive: -0.903
17 | GGCAGUGUUUUGUCAAGUUTT against Fgd4 | inactive: -0.65
18 | GGCCAAAGAGAUAUAUAUATT against Rassf3 | inactive: -1.2
19 | GCUUUCGUGUGAUCUUUUATT against BC005682 | inactive: 0.975
20 | GGUCUGAUUUUCAACACCUTT against Aqp6 | inactive: -0.0489
21 | CCAUCAUUCUCUGGUCAAATT against Sdha | inactive: 0.924
22 | GGGAUAGUUACAUCGAAGUTT against Acate2 | inactive: -0.444
23 | GGAUUUACUUCACUAAUCCTT against V2r14 | inactive: 0.14
24 | CGCCUUCAUAAUGUAGUUGTT against Defb37 | inactive: -1.15
25 | GGCUUUUUAGGAAACUAUATT against Olfr361 | inactive: -0.363
26 | GGAGAUCCAGAAGAGACGATT against 9030408N13Rik | inactive: 1.3

Taken from above.
z-score, GCCGAUACUUGAGCCAGUUTT against Srd5a1 is entered as inactive: -1.17
z-score, GGAGUUUACAGAAAUUAUCTT against Pecam1 is entered as inactive: 0.314
z-score, CGUGUACUCCUGGUUUCCCTT against 1700129L13Rik is entered as inactive: 0.655
z-score, CGCCUUCAUAAUGUAGUUGTT against Defb37 is entered as inactive: -1.15
z-score, GGUCUGAUUUUCAACACCUTT against Aqp6 is entered as inactive: -0.0489

(further entries)

Row | Sequence | z-score
27 | GGAAGUUUUGUUCCUGCAUTT against AI875199 | inactive: -2.2
28 | GGAGACUUAAAGGACAAAUTT against Phf17 | inactive: -0.534
29 | GCCACCUAAUUUACAAUCUTT against Nov | inactive: 1.41
30 | GGCACGAUGGUUCAUCCUUTT against Plek2 | inactive: 1.94
31 | GCUCGUCAGCAGUAAGAAUTT against Nmbr | inactive: -2.27
32 | GGCCUGUCCAAAGAAGUGATT against E2f3 | inactive: 1.01
33 | GCUCAAACGAAAUGAUUCATT against Gys2 | inactive: 1.61
34 | CCAUUUAUGGAAUACACCUTT against BC022651 | inactive: 0.253
35 | GGAGUAUGAUAAUGAACCATT against Areg | inactive: -0.741
36 | CCUUGUAGUAAUAGGGAUGTT against Olfr116 | inactive: -2.33
37 | CGCAGGAUCUUAAAGAGCATT against Naga | inactive: 1.84
38 | GGAGCUUCAAGGUCUGUCGTT against Tmc6 | inactive: 1.73
39 | CGGAACGAUCCGGAACAUCTT against Idh2 | inactive: -0.892
40 | GGUGCUUAAAACAGAAAGATT against 4732465J09Rik | inactive: -0.891
41 | CGUAUUUAUUGACUCACUATT against Klhl17 | inactive: -0.506
42 | AUGACUAACAUUUUCCACCTT against Tpbpb | inactive: 0.0162
43 | GCCUGAGCUUUACAAGCAGTT against Syt6 | inactive: 1.06
44 | GGCUGUGGUAGAAAAGCUGTT against Hspg2 | inactive: 0.216
45 | GGGAAGGUGGUGGAUCUACTT against Adss2 | inactive: -0.357
46 | GCCAGUAACUCAACAGAAGTT against Umod | inactive: 0.779
47 | CCAAGCUAUUGGCCCUGACTT against Defb38 | inactive: -1.01
48 | GGUACCUGAAAAAAACAAATT against 0610027O18Rik | inactive: 0.282
49 | GGGAUAGUUACCUAAGACATT against Adarb2 | inactive: -0.0445
50 | CCCAUAGUGAAUCAUAGUGTT against Olfr225 | inactive: 0.536
51 | GGAAAGAUCUUAUAAUGUGTT against Zfp85-rs1 | inactive: -0.656
52 | GGAUGUCCACAUCAAGGCUTT against Dscam | inactive: 0.0516

Row | Sequence | z-score
53 | CCCAAGCAAAUGGUGUAAUTT against Rab5a | inactive: 1.34
54 | GGUGCAAGUGCAGUUUCAATT against Fxyd6 | inactive: 1.47
55 | GGUUGUUUUGCAUUUGUGUTT against Slc25a14 | inactive: 0.124
56 | GGUAUAGCGGUGCAUGUCATT against Bmp8a | inactive: -0.208
57 | GCCUGUAAGAUCACUAAAATT against Atxn7l1 | inactive: 2.15
58 | CGAUCAUUAUGAACAGAUUTT against Olfr48 | inactive: -0.949
59 | GGCUUCAAUGCCAAUCGGATT against Kcnh3 | inactive: 0.297
60 | GGGCAAGUACCCAAUAAGATT against Cyp27a1 | inactive: 0.292
61 | GGGCUAAGGCGAAAAGACUTT against Msx2 | inactive: -0.731
62 | GGGCAAGUACAAGCGUAACTT against Jph4 | inactive: 2.37
63 | CGACAAGUACGAGAACGGUTT against Tcf21 | inactive: -0.757
64 | CCGGCUUUAUAAUUAGGAUTT against Olfr948 | inactive: 1.1
65 | GCAAUGAGGAGUAUAUGUATT against Rfx5 | inactive: -0.826
66 | CCACUGUCCUGAUUUCUUATT against Olfr1037 | inactive: -0.116
67 | CGAUUUCGCCAUCUUUGGATT against Tpk1 | inactive: 1.06
68 | GCUAUAGCCCUAGAGCUAUTT against Psmb4 | inactive: 0.209
69 | GCAAGAGGGUUACAGUUAGTT against 2610001J05Rik | inactive: -0.361
70 | GCGACACAGAUUCAGAGAATT against LOC434008 | inactive: 1.25
71 | GGACUUCACAAGACUUCAATT against 4921501M20Rik | inactive: -0.42
72 | GCUGAAAAGUAGAGUUAAATT against Pcm1 | inactive: 0.753
73 | GGAAUGUGUGAGUGAAUUUTT against Nfyb | inactive: -1.65
74 | GGUGAUGAUGAUGUCUUUGTT against B3gnt7 | inactive: -0.107
75 | GGGUGAAUUUCCACCUUAUTT against Sgce | inactive: -1.49
76 | GGAGUACGAAUUCCUCACUTT against Arhgdib | inactive: 0.935
77 | GGAAGUAGCCCAGAAGUGUTT against Rad51l3 | inactive: 0.307
78 | GGUAUCUAUGGAGGUUAUUTT against 0610031J06Rik | inactive: -1.01

Row | Sequence | z-score
79 | GGGAUGCUAACAGGUGUCATT against BC021917 | inactive: -0.386
80 | GGUUCCAACAGGAGAGAACTT against Crsp3 | inactive: -1.36
81 | UUUCAACUGAAUUGCACUUTT against 4930471G03Rik | inactive: 1.91
82 | GGUUAAAAUUUGGUUUCAGTT against Cdx2 | inactive: 0.33
83 | GCCACUAAGAUUGUCAUCGTT against Tacr3 | inactive: -0.805
84 | GCCACUCUGUCAAUUAACATT against 6030404E16Rik | inactive: -1.27
85 | CGGGAAAGUACUGUAGAAATT against Cdc42se1 | inactive: -0.296
86 | GGAGUACUUCCCUGUGAUCTT against Magea6 | inactive: -0.156
87 | GCACGAACAAAAUGAAUACTT against Insl6 | inactive: -0.219
88 | CGGACACUUUCACCUUCAATT against C77080 | inactive: 0.521
89 | GGUAGUUAAUCAGUGUAAATT against Rps6kb1 | inactive: 0.3
90 | GGUGCACAGAUGUCUUACCTT against Sec24d | inactive: -0.903
91 | GGUCUUACUCAAAAACCAATT against 6330416G13Rik | inactive: -1.17
92 | GGAAGCUUACUUUUCUCUATT against BC021395 | inactive: 0.441
93 | GCACAGACAUCUUUUGCCATT against Man2a2 | inactive: -0.333
94 | CCUAUCUCAUACCUACAUGTT against 2810474O19Rik | inactive: 0.158
95 | GCUCAAUGACAGACUAGCCTT against Dusp3 | inactive: -0.763
96 | GGAUUUUCUACUUAGCAACTT against 9630013D21Rik | inactive: -0.106
97 | GCCAUCAUACUGUCACCAGTT against 2610042O14Rik | inactive: -0.341
98 | GGACUAGCACUUUAUGUUUTT against Strm | inactive: 0.544
99 | CCUAUGAACUCUUAACCAATT against Pgd | inactive: -2.07
100 | GGUUAGUCGACAGAAACAATT against 4921537P18Rik | inactive: -1.81
101 | GGAAGAAAUGGACCAGCUGTT against Brp16 | inactive: -1.27
102 | GGCAAACGAAACACUAGCATT against Cacna1d | inactive: 1.15
103 | GCAUUUCCCAGCCUGAUACTT against 2810003C17Rik | inactive: -0.751
104 | GGAUGUAGAACUCUUAGCUTT against B930090D16Rik | inactive: 0.988

Looked up one by one from the list above (three):
Row | Sequence | z-score
87 | GCACGAACAAAAUGAAUACTT against Insl6 | inactive: -0.219
81 | UUUCAACUGAAUUGCACUUTT against 4930471G03Rik | inactive: 1.91
95 | GCUCAAUGACAGACUAGCCTT against Dusp3 | inactive: -0.763
